Experimental data: PubChem BioAssay AID493246 (Drosophila RNAi Screening Center, 2011)
The screen tested about 21,000 reagents; this is an unselected part of those with a known target gene and a result. Of all reagents, 429 (2%) got an active call. 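Values are raw and not normalised between plates; calls rest on per-plate z-scores that were not deposited.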 A plus sign joins genes that one reagent is predicted to hit. Not stated in the record: the amount of reagent, the time to read-out.

- Screen: 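Genome-wide search for dsRNAs that reduce cell number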 (primary screen)
- System: Drosophila Kc and S2R+ cells
- Knock-down reagent: long dsRNA against Drosophila genes
- Measurement: 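Raw, unnormalised count of remaining cells in each well; per-plate z-scores of cell number underlie the calls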
- Direction: Kc cell number and S2R+ cell number: higher = more cells remaining
- Call rule: 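Counted as a hit if cell number falls by a z-score of at least 3 within its plate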

target | dsRNA | Kc cell number, rep 1 | Kc cell number, rep 2 | S2R+ cell number, rep 1 | S2R+ cell number, rep 2 | Call
CG4751 (GeneID 34551) | DRSC02776 | 1.36e6 | 1.40e6 | 1.17e6 | 1.25e6 | inactive
CG8543 (GeneID 38837) | DRSC10990 | 1.27e6 | 1.31e6 | 1.16e6 | 1.16e6 | inactive
bves (GeneID 33083) | DRSC20520 | 1.49e6 | 1.50e6 | 1.11e6 | 1.17e6 | inactive
bves (GeneID 33083) | DRSC20554 | 1.56e6 | 1.55e6 | 1.09e6 | 1.29e6 | inactive
bves (GeneID 33083) | DRSC20555 | 1.52e6 | 1.55e6 | 1.12e6 | 1.31e6 | inactive
CG3191 (GeneID 31209) | DRSC18530 | 5.20e5 | – | 8.98e5 | – | inactive
Arfip (GeneID 41353) | DRSC15179 | 1.49e6 | 1.55e6 | 1.15e6 | 1.19e6 | inactive
CG13526 (GeneID 37613) | DRSC04168 | 1.66e6 | 1.72e6 | 1.23e6 | 1.48e6 | inactive
Nmda1 (GeneID 36419) | DRSC07479 | 1.44e6 | 1.56e6 | 1.26e6 | 1.32e6 | inactive
Ptp52F (GeneID 36790) | DRSC06717 | 1.45e6 | 1.55e6 | 1.18e6 | 1.27e6 | inactive
Or85f (GeneID 41119) | DRSC16769 | 1.60e6 | 1.58e6 | 1.23e6 | 1.31e6 | inactive
CG17343 (GeneID 35180) | DRSC02606 | 1.49e6 | 1.60e6 | 1.30e6 | 3.97e5 | inactive
CG3635 (GeneID 35447) | DRSC03729 | 1.49e6 | 1.54e6 | 1.24e6 | 3.38e5 | inactive
CG32706 + CG6999 | DRSC18412 | 1.62e6 | 1.59e6 | 1.02e6 | 1.15e6 | inactive
Nup153 (GeneID 32630) | DRSC19904 | 9.77e5 | 1.22e6 | 6.48e5 | 7.59e5 | active
CG14071 (GeneID 34507) | DRSC02374 | 1.54e6 | 1.55e6 | 1.14e6 | 1.28e6 | inactive
CG17350 (GeneID 35210) | DRSC02611 | 1.63e6 | 1.68e6 | 1.25e6 | 3.51e5 | inactive
retm (GeneID 33899) | DRSC03252 | 1.31e6 | 1.35e6 | 7.71e5 | 9.40e5 | inactive
Dad (GeneID 42059) | DRSC16642 | 1.78e6 | 1.91e6 | 1.21e6 | 1.35e6 | inactive
Trf2 (GeneID 31773) | DRSC18727 | 1.64e6 | 1.66e6 | 8.22e5 | 9.10e5 | inactive
fwd (GeneID 45374) | DRSC08580 | 1.55e6 | 1.54e6 | 1.17e6 | 1.29e6 | inactive
CG31638 (GeneID 33910) | DRSC02269 | 1.55e6 | 1.41e6 | 1.17e6 | 1.32e6 | inactive
CG31638 (GeneID 33910) | DRSC03259 | 1.48e6 | 1.36e6 | 1.18e6 | 1.34e6 | inactive
CG30289 (GeneID 246532) | DRSC03870 | 5.42e5 | – | 8.74e5 | – | inactive
CG30393 (GeneID 246588) | DRSC04253 | 1.65e6 | 1.80e6 | 1.43e6 | 3.37e5 | inactive
CG13679 (GeneID 38919) | DRSC10037 | 1.47e6 | 1.62e6 | 1.02e6 | 1.18e6 | inactive
CG2901 (GeneID 31338) | DRSC18239 | 1.61e6 | 1.71e6 | 1.04e6 | 1.20e6 | inactive
CG7655 (GeneID 42128) | DRSC16275 | 1.63e6 | 1.76e6 | 1.20e6 | 1.25e6 | inactive
CG7214 (GeneID 34053) | DRSC03028 | 1.45e6 | 1.39e6 | 5.84e5 | 9.43e5 | inactive
CG7341 (GeneID 40004) | DRSC10818 | 1.46e6 | 1.49e6 | 1.20e6 | 1.35e6 | inactive
Nmt (GeneID 38909) | DRSC11236 | 1.60e6 | 1.59e6 | 1.09e6 | 1.11e6 | inactive
CG4036 (GeneID 34302) | DRSC02735 | 1.33e6 | 1.43e6 | 1.08e6 | 1.20e6 | inactive
CG14185 (GeneID 40197) | DRSC10184 | 1.51e6 | 1.66e6 | 1.38e6 | 1.39e6 | inactive
CG12998 (GeneID 32710) | DRSC19518 | 1.70e6 | 1.73e6 | 1.17e6 | 1.30e6 | inactive
CG32642 (GeneID 318137) | DRSC18959 | 1.40e6 | 1.75e6 | 1.11e6 | 1.22e6 | inactive
CG9689 (GeneID 31922) | DRSC18440 | 4.80e5 | – | 9.35e5 | – | inactive
AlkB (GeneID 2768870) | DRSC19115 | 1.29e6 | 1.49e6 | 1.08e6 | 1.14e6 | inactive
Pcyt2 (GeneID 38180) | DRSC08531 | 1.38e6 | 1.42e6 | 1.11e6 | 1.13e6 | inactive
dpr16 (GeneID 40619) | DRSC12217 | 1.60e6 | 1.83e6 | 1.26e6 | 1.39e6 | inactive
WDR79 (GeneID 33865) | DRSC03159 | 1.28e6 | 1.47e6 | 4.24e5 | 4.10e5 | inactive

Targets above whose target name begins with D or d (2):
target | dsRNA | Kc cell number, rep 1 | Kc cell number, rep 2 | S2R+ cell number, rep 1 | S2R+ cell number, rep 2 | Call
Dad (GeneID 42059) | DRSC16642 | 1.78e6 | 1.91e6 | 1.21e6 | 1.35e6 | inactive
dpr16 (GeneID 40619) | DRSC12217 | 1.60e6 | 1.83e6 | 1.26e6 | 1.39e6 | inactive
